PubChem BioAssay AID743121, NCATS – 2013

Screen: 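Genes whose silencing strengthens cell killing by camptothecin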 (primary screen)
System: MDA-MB-231 cells, a human breast cancer line
Reagents: single siRNA against human genes, 20 nM siRNA (0.8 pmol per well)
Time to read-out: 120 h (drug added 48 h after transfection, read 72 h later)
Challenge: camptothecin 20 nM (about EC30) for 72 h; vehicle 0.1% DMSO in parallel plates
Measured: 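Cell viability by ATP luminescence (CellTiter-Glo) as % of non-targeting siRNA wells, and the log2 ratio of viability without drug over viability with camptothecin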
Scale: log2 vehicle/camptothecin viability: higher = stronger sensitisation to camptothecin
Call rule: 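Each gene scored by redundant siRNA activity (RSA) over its individual siRNA ratios; a gene is called active at p < 0.001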
Here is a random part of about 26,000 reagents tested. 167 of them (0.63%) were called active. 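Calls are per gene from RSA p-values that are not deposited; an individual active-marked siRNA can sensitise only weakly.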 Reagents against one gene are numbered here. Not all columns of the deposit are shown.

target gene	reagent	log2 vehicle/camptothecin viability	call
FMO5 (GeneID 2330)	1	-0.014	inactive
FMO5 (GeneID 2330)	2	0.826	inactive
FMO5 (GeneID 2330)	3	-0.0405	inactive
FMO5 (GeneID 2330)	4	-0.231	inactive
LAMC2 (GeneID 3918)	1	-0.314	inactive
LAMC2 (GeneID 3918)	2	-0.119	inactive
LAMC2 (GeneID 3918)	3	-0.0986	inactive
SLC22A17 (GeneID 51310)	1	-0.117	inactive
SLC22A17 (GeneID 51310)	2	-0.0359	inactive
SLC22A17 (GeneID 51310)	3	-0.0596	inactive
SLC22A17 (GeneID 51310)	4	-0.329	inactive
CBLB (GeneID 868)	1	-0.302	inactive
CBLB (GeneID 868)	2	-0.308	inactive
CBLB (GeneID 868)	3	-0.119	inactive
CBLB (GeneID 868)	4	0.0139	inactive
RNF141 (GeneID 50862)	1	-0.219	inactive
RNF141 (GeneID 50862)	2	-0.471	inactive
RNF141 (GeneID 50862)	3	-0.456	inactive
FBXO30 (GeneID 84085)	1	0.0141	inactive
FBXO30 (GeneID 84085)	2	0.0163	inactive
FBXO30 (GeneID 84085)	3	-0.0464	inactive
STK38 (GeneID 11329)	1	0.128	inactive
STK38 (GeneID 11329)	2	-0.419	inactive
STK38 (GeneID 11329)	3	-0.309	inactive
STK38 (GeneID 11329)	4	0.0855	inactive
VDAC3 (GeneID 7419)	1	-0.243	inactive
VDAC3 (GeneID 7419)	2	-0.0792	inactive
VDAC3 (GeneID 7419)	3	-0.387	inactive
VDAC3 (GeneID 7419)	4	-0.36	inactive
SLC25A23 (GeneID 79085)	1	0.0489	inactive
SLC25A23 (GeneID 79085)	2	0.0883	inactive
SLC25A23 (GeneID 79085)	3	-0.301	inactive
SLC25A23 (GeneID 79085)	4	-0.313	inactive
NPM1 (GeneID 4869)	1	0.0375	inactive
NPM1 (GeneID 4869)	2	-0.271	inactive
NPM1 (GeneID 4869)	3	-0.48	inactive
NPM1 (GeneID 4869)	4	-0.236	inactive
NPM1 (GeneID 4869)	5	-0.389	inactive
NPM1 (GeneID 4869)	6	-0.146	inactive
ALS2CL (GeneID 259173)	1	0.384	inactive
ALS2CL (GeneID 259173)	2	-0.549	inactive
ALS2CL (GeneID 259173)	3	-0.126	inactive
ALS2CL (GeneID 259173)	4	0.222	inactive
TFAP2A (GeneID 7020)	1	0.513	inactive
TFAP2A (GeneID 7020)	2	-0.122	inactive
TFAP2A (GeneID 7020)	3	0.0955	inactive
